Test results from patent publication US20020165140A1.
No constants are given. Whether binding was seen depends on the method and setting. For some of these results: Binding seen in cells or lysates may run through a third protein. Some entries that bind do so weakly or less than the wild type. For some of these results: Where a sequence is shown, tags or fusion partners need not be part of it.

Chains of the proteins cited; added tags and fusions are not shown. Lines headed by an entry give the natural chain unless they say otherwise; changes in a name come on top.
UniProt Q16665: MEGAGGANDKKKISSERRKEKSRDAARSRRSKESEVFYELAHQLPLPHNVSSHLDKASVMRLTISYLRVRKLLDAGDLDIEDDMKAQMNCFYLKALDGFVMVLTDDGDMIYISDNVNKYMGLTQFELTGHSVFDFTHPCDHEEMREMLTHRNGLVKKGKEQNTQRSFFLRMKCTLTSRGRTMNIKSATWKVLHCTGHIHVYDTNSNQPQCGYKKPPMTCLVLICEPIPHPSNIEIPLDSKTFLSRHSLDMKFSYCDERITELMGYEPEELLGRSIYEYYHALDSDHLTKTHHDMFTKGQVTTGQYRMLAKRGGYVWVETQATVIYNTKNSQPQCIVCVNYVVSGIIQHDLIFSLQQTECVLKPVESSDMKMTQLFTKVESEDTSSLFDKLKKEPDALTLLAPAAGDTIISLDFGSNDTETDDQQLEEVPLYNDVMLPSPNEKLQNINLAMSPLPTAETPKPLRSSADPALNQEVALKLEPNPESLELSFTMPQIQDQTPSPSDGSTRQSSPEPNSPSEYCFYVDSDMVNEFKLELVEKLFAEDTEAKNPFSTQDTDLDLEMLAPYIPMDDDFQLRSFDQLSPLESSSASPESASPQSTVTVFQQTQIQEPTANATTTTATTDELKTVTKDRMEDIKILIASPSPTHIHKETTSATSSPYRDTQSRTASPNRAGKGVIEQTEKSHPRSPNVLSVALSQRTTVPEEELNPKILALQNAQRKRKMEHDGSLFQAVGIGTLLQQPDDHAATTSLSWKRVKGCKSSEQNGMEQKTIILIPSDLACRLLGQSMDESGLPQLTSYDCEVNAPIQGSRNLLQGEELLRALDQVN
UniProt P04386: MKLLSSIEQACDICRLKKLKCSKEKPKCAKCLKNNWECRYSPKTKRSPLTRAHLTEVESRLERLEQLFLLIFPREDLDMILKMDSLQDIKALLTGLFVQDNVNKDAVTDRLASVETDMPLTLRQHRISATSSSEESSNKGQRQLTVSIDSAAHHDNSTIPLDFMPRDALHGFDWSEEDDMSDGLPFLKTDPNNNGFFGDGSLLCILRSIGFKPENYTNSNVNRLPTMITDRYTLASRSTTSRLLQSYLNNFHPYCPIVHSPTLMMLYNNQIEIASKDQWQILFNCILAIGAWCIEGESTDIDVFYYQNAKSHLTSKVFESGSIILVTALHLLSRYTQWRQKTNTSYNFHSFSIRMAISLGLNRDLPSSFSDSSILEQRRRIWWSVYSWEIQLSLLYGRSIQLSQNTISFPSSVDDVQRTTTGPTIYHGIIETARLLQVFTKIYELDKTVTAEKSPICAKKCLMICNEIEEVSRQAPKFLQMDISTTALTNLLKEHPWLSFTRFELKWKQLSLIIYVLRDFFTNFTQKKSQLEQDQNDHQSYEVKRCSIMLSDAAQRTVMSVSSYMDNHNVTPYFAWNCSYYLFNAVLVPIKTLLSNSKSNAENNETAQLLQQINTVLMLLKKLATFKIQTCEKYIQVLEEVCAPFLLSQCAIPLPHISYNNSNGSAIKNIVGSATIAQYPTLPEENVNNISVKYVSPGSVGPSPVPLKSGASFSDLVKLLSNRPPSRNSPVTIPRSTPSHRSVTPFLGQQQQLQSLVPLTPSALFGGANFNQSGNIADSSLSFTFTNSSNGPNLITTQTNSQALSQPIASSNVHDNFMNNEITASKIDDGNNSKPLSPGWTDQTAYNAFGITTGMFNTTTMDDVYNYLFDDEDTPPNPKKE

B1: glutathione S-transferase- (GST-) IPAS fusion protein (protein, not shown: a dimerising Fc or GST)
chain: MALGLQRVRSNTELRKEKSRDAARSRRSQETEVLYQLAHTLPFARGVSAHLDKASIMRLTISYLRMHRLCAAGGKRGRATGRLLPEGPGGFRHGTHRRGRHGLPVGKCQQAPGPQSVDLCSSSLIHNPTPGTNFSLELIGHSIFDFIHPCDQEELQDALTPRPNLSKKKLEAPTERHFSLRMKSTLTSRGRTLNLKAATWKVLHCSGHMRAYKPPAQTSPAGSPRSEPPLQCLVLICEAIPQLPFHDGATLGLPQEKTPISTLFTPLWKALLCLVKRWPVQVLQGKGTESSLPSWVLWALNRKNCPG
B2: VP16-IPAS (protein)
chain: B1 chain

How the values were obtained:
[1] = target: hypoxia inducible factor-1α (HIF-1α), in vitro translated (UniProt Q16665); assay: coimmunoprecipitation with anti-GST antibody, in vitro translated proteins, autoradiography (FIG. 4a legend)
[2] = target: hypoxia inducible factor-1α (HIF-1α), in vitro translated (UniProt Q16665); assay: coimmunoprecipitation with anti-GST antibody, in vitro translated proteins, autoradiography
GAL4-HIF-1α/1-330 [3] = target: GAL4-HIF-1α/1-330 (UniProt P04386); assay: mammalian two-hybrid assay in COS7 cells, GAL4-driven luciferase reporter
GAL4-HIF-1α/1-330 [4] = target: GAL4-HIF-1α/1-330 (UniProt P04386); assay: mammalian two-hybrid assay in COS7 cells, GAL4-driven luciferase reporter (FIG. 4c legend)

| Binder | binding [1] | binding [2] | binding (GAL4-HIF-1α/1-330 [3]) | binding (GAL4-HIF-1α/1-330 [4]) |
| --- | --- | --- | --- | --- |
| B1 | binds | binds | – | – |
| B2 | – | – | binds | binds |
